The values below come from paper PMC10182982.

The chains behind the UniProt entries cited, without tags or fusion partners.
UniProt Q16877: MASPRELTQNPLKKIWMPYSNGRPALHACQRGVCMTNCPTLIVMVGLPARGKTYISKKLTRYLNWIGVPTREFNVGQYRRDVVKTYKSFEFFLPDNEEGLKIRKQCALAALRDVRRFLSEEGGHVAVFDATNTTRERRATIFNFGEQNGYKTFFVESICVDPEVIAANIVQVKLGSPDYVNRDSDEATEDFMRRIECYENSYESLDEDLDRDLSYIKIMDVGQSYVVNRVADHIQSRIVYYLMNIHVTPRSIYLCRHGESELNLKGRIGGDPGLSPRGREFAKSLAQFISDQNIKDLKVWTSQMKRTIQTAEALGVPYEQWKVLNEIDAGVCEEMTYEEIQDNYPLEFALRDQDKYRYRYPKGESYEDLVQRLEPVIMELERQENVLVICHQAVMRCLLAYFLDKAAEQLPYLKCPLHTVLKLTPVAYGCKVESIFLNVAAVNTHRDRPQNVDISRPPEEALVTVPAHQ

These are yes or no findings as the source states them, for the method shown. In cells and extracts the contact can be indirect. A yes stands for co-enrichment or nearness to the bait. Other partners may have been found. Tags and fused reporters may be left off the sequences shown.

The target in the assay is T1, Flag-HA-FBXL7 (UniProt Q9UJT9).
T1 sequence: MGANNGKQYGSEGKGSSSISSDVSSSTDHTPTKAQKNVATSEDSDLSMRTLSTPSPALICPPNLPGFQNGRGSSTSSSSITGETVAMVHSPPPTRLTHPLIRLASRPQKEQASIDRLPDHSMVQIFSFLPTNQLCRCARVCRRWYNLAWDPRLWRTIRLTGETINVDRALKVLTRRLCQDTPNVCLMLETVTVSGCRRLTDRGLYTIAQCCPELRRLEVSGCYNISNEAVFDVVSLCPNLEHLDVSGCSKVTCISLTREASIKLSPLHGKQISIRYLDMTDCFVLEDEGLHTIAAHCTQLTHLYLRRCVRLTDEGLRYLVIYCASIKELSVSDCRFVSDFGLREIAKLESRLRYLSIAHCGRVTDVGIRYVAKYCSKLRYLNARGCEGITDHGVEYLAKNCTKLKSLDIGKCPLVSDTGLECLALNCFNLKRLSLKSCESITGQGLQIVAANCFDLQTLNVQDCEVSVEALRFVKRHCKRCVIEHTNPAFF
The assay is described as follows: affinity purification with mass spectrometry; tandem affinity purification of Flag-HA-FBXL7 from transfected 293T cells (RIPA lysate): anti-Flag agarose, 3xFlag peptide elution, anti-HA agarose, SDS-PAGE, LC-MS.

As for “6-phosphofructo-2-kinase/fructose-2,6-biphosphatase 4 (PFKFB4), endogenous (from UniProt Q16877 1-469)”, the binding entry is reported as “binds”.
